Data published in US20040228849A1 (University of California, published 2004).
Results are given in words; binding and its absence hold for the method and conditions named. For part of these data: In cells and extracts the contact can be indirect. Some results given as binding are weak or reduced against the parent protein; the word gives no strength. For part of these data: Tags and fused reporters may be left off the sequences shown. Each block holds one molecule with its values, some of them ahead of it.

Columns and labels:
[1] = target: GST-(8X-AA) [GST: P08515]; experiment: affinity chromatography of HeLa IKK material on GST-(8X-AA) resin, silver stained SDS-PAGE
Flag(M2)-IKKα (human) = target: T1, Flag(M2)-IKKα (human) (UniProt O15111); experiment: coimmunoprecipitation with anti-HA from transfected 293 cells, immunoblot
T1 sequence: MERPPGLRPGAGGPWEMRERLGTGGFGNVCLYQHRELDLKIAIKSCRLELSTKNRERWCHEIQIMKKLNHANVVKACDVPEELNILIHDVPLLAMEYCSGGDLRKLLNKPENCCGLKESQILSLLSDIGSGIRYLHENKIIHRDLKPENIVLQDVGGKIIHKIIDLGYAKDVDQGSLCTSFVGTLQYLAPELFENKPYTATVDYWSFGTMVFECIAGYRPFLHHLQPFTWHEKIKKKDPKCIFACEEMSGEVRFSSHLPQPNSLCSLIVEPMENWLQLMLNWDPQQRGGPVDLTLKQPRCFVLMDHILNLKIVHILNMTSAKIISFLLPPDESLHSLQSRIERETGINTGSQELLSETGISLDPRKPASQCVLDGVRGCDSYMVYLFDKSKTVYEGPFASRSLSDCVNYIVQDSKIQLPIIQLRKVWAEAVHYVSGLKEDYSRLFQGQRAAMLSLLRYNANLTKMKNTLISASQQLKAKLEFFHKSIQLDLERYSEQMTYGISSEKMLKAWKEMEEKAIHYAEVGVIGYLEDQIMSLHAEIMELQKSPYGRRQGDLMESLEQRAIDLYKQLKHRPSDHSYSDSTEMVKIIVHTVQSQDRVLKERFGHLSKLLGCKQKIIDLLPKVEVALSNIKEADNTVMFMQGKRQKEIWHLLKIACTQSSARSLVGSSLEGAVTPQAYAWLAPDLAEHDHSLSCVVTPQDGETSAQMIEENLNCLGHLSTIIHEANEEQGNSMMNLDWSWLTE

[2] = target: T2, IKKα (full length human IKKα subunit) (human) (UniProt O15111); experiment: as above
T2 sequence: T1 sequence

[3] = target: T2, IKKα (full length human IKKα subunit) (human); experiment: coimmunoprecipitation from transfected cells (summing up of the results before it)
[4] = target: T2, IKKα (full length human IKKα subunit) (human); experiment: coimmunoprecipitation from HeLa cells transfected with 0.1 to 1.0 µg/10^6 cells of HA-IKKβ vector
[5] = target: T2, IKKα (full length human IKKα subunit) (human); experiment: immunoprecipitation experiments, transfected mammalian cells

binding [1]: binds
Molecule: IKKβ (full length human IKKβ subunit) (from UniProt O14920 1-756) (enzyme)

binding (Flag(M2)-IKKα (human)): binds
binding [2]: binds
binding [3]: binds
binding [4]: binds
Molecule: HA-IKKβ (from UniProt O14920 1-756) (enzyme)

binding [5]: binds
B1: IKKβ(KA) (enzyme, not shown: small tags and cut ends)
chain: MSWSPSLTTQTCGAWEMKERLGTGGFGNVIRWHNQETGEQIAIAQCRQELSPRNRERWCLEIQIMRRLTHPNVVAARDVPEGMQNLAPNDLPLLAMEYCQGGDLRKYLNQFENCCGLREGAILTLLSDIASALRYLHENRIIHRDLKPENIVLQQGEQRLIHKIIDLGYAKELDQGSLCTSFVGTLQYLAPELLEQQKYTVTVDYWSFGTLAFECITGFRPFLPNWQPVQWHSKVRQKSEVDIVVSEDLNGTVKFSSSLPYPNNLNSVLAERLEKWLQLMLMWHPRQRGTDPTYGPNGCFKALDDILNLKLVHILNMVTGTIHTYPVTEDESLQSLKARIQQDTGIPEEDQELLQEAGLALIPDKPATQCISDGKLNEGHTLDMDLVFLFDNSKITYETQISPRPQPESVSCILQEPKRNLAFFQLRKVWGQVWHSIQTLKEDCNRLQQGQRAAMMNLLRNNSCLSKMKNSMASMSQQLKAKLDFFKTSIQIDLEKYSEQTEFGITSDKLLLAWREMEQAVELCGRENEVKLLVERMMALQTDIVDLQRSPMGRKQGGTLDDLEEQARELYRRLREKPRDQRTEGDSQEMVRLLLQAIQSFEKKVRVIYTQLSKTVVCKQKALELLPKVEEVVSLMNEDEKTVVRLQEKRQKELWNLLKIACSKVRGPVSGSPDSMNASRLSQPGQLMSQPSTASNSLPEPAKKSEELVAEAHNLCTLLENAIQDTVREQDQSFTALDWSWLQTEEEEHSCLEQAS
